The list is a part of this screen's results and no random one: it is rich in T/C values a quarter to a half above the control, in often repeated tests (any T/C) and in doses without a T/C. Other doses and runs of a compound stand elsewhere. T/C gives the treated animals as a percentage of the vehicle group. Some doses have a count of surviving animals in place of a T/C: the source files T/C as zero there, which appears to mark a toxic dose or a test without result, not a measured value. Some survivor counts are full or nearly so, which does not show that the dose was tolerated: the source hardly ever lists a survival T/C far under the control, and the zero likely stands for such cases as well. Counts of survivors are from the toxicity check (mostly the fifth day) where no day follows; animals may have died later. Schedules are NCI's codes, read here as Q, the interval in days (D) or hours (H), X, the number of doses. Some entries hold several experiments; the values are given in rising order. Where survival is the endpoint, the PubChem record calls one and a half times the control and up active, and a quarter to a half above the control has no call in these data; cut-offs in other NCI protocols can differ.
System: P388 leukemia ip, CD2F1 mice, survival T/C
Assay: NCI In Vivo Anticancer Drug Screen. Data for tumor model P388 Leukemia (intraperitoneal) in CD2F1 (CDF1) mice
Conditions: T/C endpoint: median survival time, higher T/C = longer survival
[1] = dose: 400.0 mg/kg/injection, schedule: Q04DX003 (ip), vehicle: saline with Tween-80
[2] = dose: 200.0 mg/kg/injection, schedule: Q01DX005 (ip), vehicle: saline with Tween-80
[3] = dose: 25.0 mg/kg/injection, schedule: Q01DX009 (ip), vehicle: saline
[4] = dose: 200.0 mg/kg/injection, schedule: Q01DX009 (ip), vehicle: saline
[5] = dose: 200.0 mg/kg/injection, schedule: Q01DX005 (ip), vehicle: saline
[6] = dose: 100.0 mg/kg/injection, schedule: Q04DX003 (ip), vehicle: saline with Tween-80
[7] = dose: 12.5 mg/kg/injection, schedule: Q01DX009 (ip), vehicle: saline with Tween-80
[8] = dose: 25.0 mg/kg/injection, schedule: Q01DX009 (ip), vehicle: saline with Tween-80
[9] = dose: 100.0 mg/kg/injection, schedule: Q01DX009 (ip), vehicle: saline with Tween-80
[10] = dose: 200.0 mg/kg/injection, schedule: Q01DX009 (ip), vehicle: saline with Tween-80

For O=C(Nc1ccccc1)P(=S)(c1ccccc1)c1ccccc1, the survivor count (dose: 100.0 mg/kg/injection, schedule: Q01DX005 (ip), vehicle: Klucel (hydroxypropylcellulose) (HPC)) was 6 of 6.
With Cc1ccc2c(c1)C=CC(C#N)N2C(=O)OCc1ccccc1 (stereo unspecified) the survivor count [1] was 6 of 6.
For CCOC(=O)c1nc(Cl)nc(Cl)c1I, the survivor count (dose: 50.0 mg/kg/injection, schedule: Q01DX009 (ip), vehicle: distilled water + Tween-80) was 4 of 6, the survivor count (dose: 100.0 mg/kg/injection, schedule: Q01DX009 (ip), vehicle: distilled water + Tween-80) was 5 of 6 and the survivor count (dose: 200.0 mg/kg/injection, schedule: Q01DX009 (ip), vehicle: distilled water + Tween-80) was 0 of 6.
O=C(O)C1(Cc2ccc(O)c(O)c2)NCCS1 (stereo unspecified) was tested, and the survivor count (dose: 400.0 mg/kg/injection, schedule: Q01DX001 (ip), vehicle: Klucel (hydroxypropylcellulose) (HPC)) was 0 of 6.
For CC1CCCN(CC(O)CN2C[C@@H](C)N(CC(O)CN3CCCC(C)C3)[C@H](C)C2)C1 (stereo partly specified), the survivor count (dose: 100.0 mg/kg/injection, schedule: Q01DX005 (ip), vehicle: saline with Tween-80) was 2 of 6 and the survivor count [2] was 0 of 6.
With CN(C)C(C(N(C)C)=[N+](C)C)=[N+](C)C the survivor count [3] was 3 of 6.
With CCCCOC(=O)N[C@H]1CCc2cc(OC)c(OC)c(OC)c2-c2ccc(SC)c(=O)cc21 the T/C (dose: 1.5 mg/kg/injection, schedule: Q01DX009 (ip), vehicle: Klucel (hydroxypropylcellulose) (HPC)) was 125 % of control, the T/C (dose: 3.0 mg/kg/injection, schedule: Q01DX009 (ip), vehicle: Klucel (hydroxypropylcellulose) (HPC)) was 126 and 142 % of control and the T/C (dose: 6.0 mg/kg/injection, schedule: Q01DX009 (ip), vehicle: Klucel (hydroxypropylcellulose) (HPC)) was 134 % of control.
With COC1OC(C)C(=O)C2OC12 (stereo unspecified) the survivor count (dose: 200.0 mg/kg/injection, schedule: Q01DX009 (ip), vehicle: Klucel (hydroxypropylcellulose) (HPC)) was 1 of 6.
For N#CC1=CN=C2C=CC=C3N=C(C(Cl)(Cl)Cl)N=C1N32, the survivor count (dose: 60.0 mg/kg/injection, schedule: Q01DX005 (ip), vehicle: Klucel + Tween-80) was 6 of 6, the survivor count (dose: 120.0 mg/kg/injection, schedule: Q01DX005 (ip), vehicle: Klucel + Tween-80) was 1 of 6 and the survivor count (dose: 240.0 mg/kg/injection, schedule: Q01DX005 (ip), vehicle: Klucel + Tween-80) was 0 of 6.
With NC(=S)N/N=C1\C(=O)NC(=O)C1c1ccccc1 (stereo unspecified) the survivor count [2] was 2 of 5.
In the case of CSc1c2c([nH]c(=O)c1C#N)-c1ccccc1CC2, the survivor count (dose: 60.0 mg/kg/injection, schedule: Q01DX005 (ip), vehicle: saline with Tween-80) is reported as 6 of 6.
CN1C(=O)C2CCCN2C(=O)C1(C)NC(=O)OCc1ccccc1 (stereo unspecified) was tested, and the survivor count (dose: 50.0 mg/kg/injection, schedule: Q04DX003 (ip), vehicle: suspension in saline) was 6 of 6 and the survivor count (dose: 100.0 mg/kg/injection, schedule: Q04DX003 (ip), vehicle: suspension in saline) was 6 of 6.
For Cn1cc(N=P(c2ccccc2)(c2ccccc2)c2ccccc2)c(=O)n(C)c1=O, the survivor count (dose: 120.0 mg/kg/injection, schedule: Q01DX005 (ip), vehicle: Klucel (hydroxypropylcellulose) (HPC)) was 1 of 6 and the survivor count (dose: 240.0 mg/kg/injection, schedule: Q01DX005 (ip), vehicle: Klucel (hydroxypropylcellulose) (HPC)) was 1 of 6.
For CCCC(O)C(NC(=O)CCl)C(=O)O (stereo unspecified), the survivor count [3] was 6 of 6 and the survivor count (dose: 50.0 mg/kg/injection, schedule: Q01DX009 (ip), vehicle: saline) was 5 of 6.
For O=C(OC[P+](c1ccccc1)(c1ccccc1)c1ccccc1)c1ccccc1, the survivor count (dose: 100.0 mg/kg/injection, schedule: Q01DX009 (ip), vehicle: saline) was 2 of 6 and the survivor count [4] was 0 of 6.
With Cc1c2c(c(O)c3c(O)cccc13)C(=O)C1(O)C(O)=C(C(=O)NCNc3ccc(C(N)=O)cn3)C(=O)C(N(C)C)C1C2 (stereo unspecified) the T/C (dose: 12.5 mg/kg/injection, schedule: Q01DX005 (ip), vehicle: saline) was 136 % of control, the T/C (dose: 25.0 mg/kg/injection, schedule: Q01DX005 (ip), vehicle: saline) was 136 % of control and the survivor count (dose: 50.0 mg/kg/injection, schedule: Q01DX005 (ip), vehicle: saline) was 6 of 6. The survivor count (dose: 100.0 mg/kg/injection, schedule: Q01DX005 (ip), vehicle: saline) was 5 of 6 and the survivor count [5] was 0 of 6.
With Cc1ccc2c(c1)CN(C13CC4CC(CC(C4)C1)C3)CO2 the T/C [6] was 125 % of control.
For O=C1c2ccccc2-c2c3c(cc4ccnc1c24)OCO3, the survivor count [7] was 6 of 6 and the survivor count [8] was 6 of 6.
COc1cc(C2c3cc4c(cc3OC(C)(OC)C2C)OCO4)cc(OC)c1OC (stereo unspecified) was tested, and the survivor count (dose: 30.0 mg/kg/injection, schedule: Q01DX005 (ip), vehicle: saline) was 6 of 6, the T/C (dose: 120.0 mg/kg/injection, schedule: Q01DX005 (ip), vehicle: saline) was 146 % of control and the survivor count (dose: 240.0 mg/kg/injection, schedule: Q01DX005 (ip), vehicle: saline) was 2 of 6.
In the case of OC1(c2ccccc2)CCN(c2c3ccccc3nc3ccccc23)CC1, the T/C (dose: 400.0 mg/kg/injection, schedule: Q04DX002 (ip), vehicle: Klucel (hydroxypropylcellulose) (HPC)) is reported as 128 % of control.
O=C(O)CC1(C(=O)O)CCC(OCc2ccccc2)CC1 (stereo unspecified) was tested, and the survivor count [4] was 4 of 6.
With O=Cc1cc(O)ccc1O the survivor count [4] was 0 of 6, the survivor count (dose: 400.0 mg/kg/injection, schedule: Q01DX009 (ip), vehicle: saline) was 0 of 6 and the survivor count (dose: 600.0 mg/kg/injection, schedule: Q01DX009 (ip), vehicle: saline) was 0 of 6.
With CCCCCC(CN(C)C)C(=O)/C=C/c1ccc(O)cc1 (stereo unspecified) the survivor count [4] was 1 of 6.
With S=P(NCCNP(=S)(N1CC1)N1CC1)(N1CC1)N1CC1 the T/C [7] was 133 % of control, the T/C [8] was 137 % of control and the survivor count [6] was 6 of 6. The survivor count (dose: 200.0 mg/kg/injection, schedule: Q04DX003 (ip), vehicle: saline with Tween-80) was 5 of 6 and the survivor count [1] was 3 of 6.
In the case of COc1cccc2c1C(=O)c1c(O)c3c(c(O)c1C2=O)C[C@@](O)(C(O)CO)C[C@@H]3OC1CC(NCc2ccccc2)C(O)C(C)O1 (stereo partly specified), the T/C (dose: 0.2 mg/kg/injection, schedule: Q01DX009 (ip), vehicle: water) is reported as 127 and 135 % of control, the T/C (dose: 0.39 mg/kg/injection, schedule: Q01DX009 (ip), vehicle: water) is reported as 149 % of control and the T/C (dose: 4.7 mg/kg/injection, schedule: Q04DX003 (ip), vehicle: water) is reported as 126 % of control. For the same compound, the T/C (dose: 6.25 mg/kg/injection, schedule: Q01DX009 (ip), vehicle: water) was 125 % of control, the survivor count (dose: 12.5 mg/kg/injection, schedule: Q01DX009 (ip), vehicle: water) was 6 of 6 and the T/C (dose: 18.8 mg/kg/injection, schedule: Q04DX003 (ip), vehicle: water) was 129 % of control. For the same compound, the T/C (dose: 37.5 mg/kg/injection, schedule: Q04DX003 (ip), vehicle: water) was 143 % of control.
With CN(C)CCCN1CN(CCCN(C)C)CN(CCCN(C)C)C1 the survivor count [5] was 1 of 5.
In the case of O=c1[nH]c(Cl)nc2n[nH]c(Br)c12, the survivor count (dose: 400.0 mg/kg/injection, schedule: Q01DX001 (ip), vehicle: saline with Tween-80) is reported as 0 of 6.
With C[n+]1ccc2ccccc2c1C#N the survivor count (dose: 50.0 mg/kg/injection, schedule: Q04DX003 (ip), vehicle: saline) was 4 of 6.
With Clc1ccc(OCCC(Cn2ccnc2)c2ccc(Cl)cc2Cl)c(Cl)c1 (stereo unspecified) the survivor count (dose: 50.0 mg/kg/injection, schedule: Q01DX009 (ip), vehicle: saline with Tween-80) was 2 of 6, the survivor count [9] was 1 of 6 and 3 of 6 and the survivor count [10] was 0 of 6.
CCN(CC)CCO[C@H]1CC[C@@]2(C)C(=CC[C@@H]3[C@@H]2CC[C@]2(C)C(=O)CC[C@@H]32)C1 was tested, and the survivor count (dose: 100.0 mg/kg/injection, schedule: Q04DX003 (ip), vehicle: saline) was 0 of 6, the survivor count (dose: 200.0 mg/kg/injection, schedule: Q04DX003 (ip), vehicle: saline) was 0 of 6 and the survivor count (dose: 400.0 mg/kg/injection, schedule: Q04DX003 (ip), vehicle: saline) was 0 of 6.
CCC1CN2CCc3cc(OC)c(OC)cc3C2CC1C#N (stereo unspecified) was tested, and the survivor count [9] was 5 of 6 and the survivor count [10] was 3 of 6.

Reference: PubChem BioAssay AID330 (DTP/NCI, 2004)
